For at least one entry, the source does not settle the construct or the ends of the probe. Where cells or extracts were used, other partners may take part.

Chains of the proteins cited; added tags and fusions are not shown. Chains listed by the source or under a name are the forms on record and can include a tag or linker.
Dicer TN (catalytically inactive), without ectopic TRBP + TRBP full length (D1-D2-D3), one chain, as listed by the source, chain 2 of 2: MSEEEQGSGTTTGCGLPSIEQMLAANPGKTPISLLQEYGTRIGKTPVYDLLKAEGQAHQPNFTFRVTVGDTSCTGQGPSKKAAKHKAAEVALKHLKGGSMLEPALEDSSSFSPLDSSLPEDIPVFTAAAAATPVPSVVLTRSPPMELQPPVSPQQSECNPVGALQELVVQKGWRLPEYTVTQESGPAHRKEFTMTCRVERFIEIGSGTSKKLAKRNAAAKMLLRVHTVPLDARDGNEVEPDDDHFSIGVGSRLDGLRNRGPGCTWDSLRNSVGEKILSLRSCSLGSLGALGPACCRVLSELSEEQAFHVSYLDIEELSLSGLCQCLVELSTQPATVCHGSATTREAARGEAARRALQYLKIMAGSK
Dicer TN (catalytically inactive), without ectopic TRBP + TRBP full length (D1-D2-D3), one chain, as listed by the source, chain 1 of 2: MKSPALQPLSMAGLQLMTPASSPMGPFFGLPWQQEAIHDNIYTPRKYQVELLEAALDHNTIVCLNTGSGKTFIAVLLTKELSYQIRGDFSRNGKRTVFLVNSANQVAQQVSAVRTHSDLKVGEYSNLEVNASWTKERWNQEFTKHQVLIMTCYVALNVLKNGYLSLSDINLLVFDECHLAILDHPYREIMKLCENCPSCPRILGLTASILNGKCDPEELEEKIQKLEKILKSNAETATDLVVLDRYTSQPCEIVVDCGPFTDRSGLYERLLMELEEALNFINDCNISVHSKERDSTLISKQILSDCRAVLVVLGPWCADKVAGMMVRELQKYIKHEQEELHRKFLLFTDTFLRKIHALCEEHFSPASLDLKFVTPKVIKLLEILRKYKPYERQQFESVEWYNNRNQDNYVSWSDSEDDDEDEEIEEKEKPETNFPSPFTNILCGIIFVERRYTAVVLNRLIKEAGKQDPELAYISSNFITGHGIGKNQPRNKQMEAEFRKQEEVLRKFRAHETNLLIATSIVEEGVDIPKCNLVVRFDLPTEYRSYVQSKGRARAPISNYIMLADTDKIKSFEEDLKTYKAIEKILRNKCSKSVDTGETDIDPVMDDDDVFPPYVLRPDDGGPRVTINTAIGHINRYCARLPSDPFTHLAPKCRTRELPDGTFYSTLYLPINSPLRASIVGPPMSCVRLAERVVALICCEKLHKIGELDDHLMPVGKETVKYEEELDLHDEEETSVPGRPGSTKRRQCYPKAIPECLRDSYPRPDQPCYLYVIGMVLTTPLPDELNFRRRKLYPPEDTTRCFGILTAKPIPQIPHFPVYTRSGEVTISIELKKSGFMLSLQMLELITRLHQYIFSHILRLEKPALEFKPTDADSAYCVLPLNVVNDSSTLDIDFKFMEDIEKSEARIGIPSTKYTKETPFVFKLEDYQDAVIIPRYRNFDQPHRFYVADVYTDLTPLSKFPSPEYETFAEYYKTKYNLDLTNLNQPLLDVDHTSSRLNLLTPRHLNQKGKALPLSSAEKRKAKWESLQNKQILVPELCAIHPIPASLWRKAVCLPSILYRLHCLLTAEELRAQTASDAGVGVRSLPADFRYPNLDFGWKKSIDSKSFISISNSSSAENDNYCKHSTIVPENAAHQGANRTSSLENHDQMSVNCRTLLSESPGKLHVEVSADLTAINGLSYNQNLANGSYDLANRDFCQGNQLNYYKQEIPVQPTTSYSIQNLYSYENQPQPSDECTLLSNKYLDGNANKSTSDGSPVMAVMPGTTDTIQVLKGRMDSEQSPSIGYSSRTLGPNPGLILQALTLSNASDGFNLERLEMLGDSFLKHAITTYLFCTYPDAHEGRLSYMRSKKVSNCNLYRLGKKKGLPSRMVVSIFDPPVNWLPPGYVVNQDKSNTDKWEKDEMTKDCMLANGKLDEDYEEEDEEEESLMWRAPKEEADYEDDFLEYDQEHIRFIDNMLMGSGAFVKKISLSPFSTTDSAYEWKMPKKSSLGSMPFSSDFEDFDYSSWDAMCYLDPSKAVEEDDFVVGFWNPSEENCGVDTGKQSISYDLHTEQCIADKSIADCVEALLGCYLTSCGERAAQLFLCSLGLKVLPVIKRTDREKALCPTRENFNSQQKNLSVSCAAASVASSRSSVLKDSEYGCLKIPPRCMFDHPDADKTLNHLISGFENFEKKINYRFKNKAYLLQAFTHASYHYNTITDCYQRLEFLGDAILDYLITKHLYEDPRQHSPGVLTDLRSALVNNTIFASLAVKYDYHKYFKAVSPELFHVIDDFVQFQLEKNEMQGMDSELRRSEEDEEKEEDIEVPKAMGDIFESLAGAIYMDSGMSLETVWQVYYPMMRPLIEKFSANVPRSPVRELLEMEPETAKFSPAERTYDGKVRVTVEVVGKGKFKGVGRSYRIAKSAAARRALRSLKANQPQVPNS

1 sequence from publication PMC5155159 can be followed below.

For the data set, the system named is Dicer TN (catalytically inactive), without ectopic TRBP + TRBP full length (D1-D2-D3). Description: single-molecule TIRF. The following applies: WT or TN form not given; amine-modified U (dye); 20 mM Tris pH 8.0, 200 mM KCl, 0.2 mM EDTA, glucose oxidase/catalase oxygen scavenger, 1 mM Trolox; 200 pM labelled RNA (200 nM in Methods); Mg2+ where stated; protein in a lysate after overexpression; protein details: Flag-TEV-AP, in vivo biotinylated,Myc; label: Cy5; letters put together from the description.

As for “UAGCAGCACGUAAAUAUUGGCGUUAAGAUUCUAAAAUUAUCUCCAGUAUUAACUGUGCUGCUGA [pre-miR-16-1]”, the binding result was “binds”.
